Laboratory results taken from patent publication US20140186872A1, “BISACODYL AND ITS ANALOGUES AS DRUGS FOR USE IN THE TREATMENT OF CANCER” (CENTRE NATIONAL DE LA RECHERCHE SCIENTIFIQUE- CNRS, priority 2011, published 2014).
For at least one compound, name, drawing or mass did not settle the structure.

System: proliferating TG1 glioblastoma stem cells
Experiment: ATP-Glo (Cell Titer Glo) cell viability, dose/response, proliferating TG1 cells
Type: cell-based, human
Details: NS34 medium pH 7.35 or 6.2, 24 or 72 h, Example 13
Experimental: The TG1 proliferating cells correspond to cells for which medium is renewed regularly, twice weekly.
The proliferating cells were put back in 1 mL of fresh NS34 medium, dissociated mechanically by pipetting up and down 100 times with a P1000 micropipette preset to 400 μl and counted with Trypan Blue, after dilution in fresh NS34 medium, to obtain a final suspension of 6×10^5 cells/mL.
50 μl of solution containing cells was deposited per well in a 96-well plate (Greiner #655090). […]
Glioblastoma (WHO grade IV glioma) stem cells (TG1, TG16 and OB1) were derived from tumor samples of 3 patients at Sainte Anne Hospital (Paris, France), as previously described (48) and expanded as neurosphere cultures. […] The non-proliferating state was assessed by decreased ability of the cells to incorporate EdU (5-ethynyl-2′-deoxyuridine) using the Click-iT™ EdU Flow Cytometry Assay Kit (Invitrogen, France) according to the manufacturer's instructions. […]
The EC50 value was determined for each compound by fitting the data points according to the following equation: […]
where y represents the expected response (expressed as a percentage of cell viability), x is the chemical compound concentration, Smax and Smin are the maximum and minimum viability responses recorded, respectively, and n is the Hill coefficient. […]

## Cn1nnc2c(C(N)=O)ncn2c1=O [TMZ, temozolomide, reference compound]
  survival of TG1 glioblastoma cancer stem cells (ATP level): ineffective
